Positions count from the first letter of the chain named. Names may count otherwise. No constants are given. Whether binding was seen depends on the method and setting. Binding seen in cells or lysates may run through a third protein. Some results given as binding are weak or reduced against the parent protein; the word gives no strength.
Legend:
[1] = target: PML5 (Potentially Membrane Localized 5) wild-type, full-length (Arabidopsis thaliana (Col-0)) (UniProt O64790); assay: co-IP; differentially tagged full-length PML5 co-expressed in N. benthamiana; extracted 4 h after induction with 20 µM estradiol; precipitated with anti-RFP beads; blots with anti-RFP and anti-HA
[2] = target: PML5 D362V (MHD mutant), full-length (Arabidopsis thaliana (Col-0)) (UniProt O64790); assay: as above
[3] = target: PML5 K74R (P-loop mutant), full-length (Arabidopsis thaliana (Col-0)) (UniProt O64790); assay: as above
[4] = target: PML5 GCC(2,3,4)A (N-myristoylation and S-acylation (PTM) mutant), full-length (Arabidopsis thaliana (Col-0)) (UniProt O64790); assay: as above
[5] = target: RPM1 CC^1–155 (Arabidopsis thaliana (Col-0)) (UniProt Q39214); assay: split reporter; BiFC with cYFP-HA and nYFP-MYC fusions transiently co-expressed in N. benthamiana leaves; YFP imaged by confocal microscopy

B1: PML5 (Potentially Membrane Localized 5) wild-type, full-length (protein, UniProt O64790 1-762)
chain: MGCCFSVQFSFDDQTLVRIFNFLCGNINRNSFGVEERPTQPTIGQEEMLEKAWNRLMEDRVGIMGLHGMGGVGKTTLFKKIHNKFAKMSSRFDIVIWIVVSKGAKLSKLQEDIAEKLHLCDDLWKNKNESDKATDIHRVLKGKRFVLMLDDIWEKVDLEAIGVPYPSEVNKCKVAFTTRDQKVCGEMGDHKPMQVKCLEPEDAWELFKNKVGDNTLRSDPVIVELAREVAQKCRGLPLALSVIGETMASKTMVQEWEHAIDVLTRSAAEFSNMGNKILPILKYSYDSLGDEHIKSCFLYCALFPEDDEIYNEKLIDYWICEGFIGEDQVIKRARNKGYEMLGTLTLANLLTKVGTEHVVMHDVVREMALWIASDFGKQKENFVVRARVGLHERPEAKDWGAVRRMSLMDNHIEEITCESKCSELTTLFLQSNQLKNLSGEFIRYMQKLVVLDLSYNRDFNKLPEQISGLVSLQFLDLSNTSIKQLPVGLKKLKKLTFLNLAYTVRLCSISGISRLLSLRLLRLLGSKVHGDASVLKELQKLQNLQHLAITLSAELSLNQRLANLISILGIEGFLQKPFDLSFLASMENLSSLWVKNSYFSEIKCRESETASSYLRINPKIPCFTNLSRLGLSKCHSIKDLTWILFAPNLVYLYIEDSREVGEIINKEKATNLTSITPFLKLERLILYNLPKLESIYWSPLHFPRLLIIHVLDCPKLRKLPLNATSVPLVEEFQIRMYPPGLGNELEWEDEDTKNRFVLSIKK
binding [1]: binds

B2: PML5 D362V (MHD mutant), full-length (protein, UniProt O64790 1-762)
chain: B1 chain with D362V
binding [2]: binds

B3: PML5 K74R (P-loop mutant), full-length (protein, UniProt O64790 1-762)
chain: B1 chain with K74R
binding [3]: binds

B4: PML5 GCC(2,3,4)A (N-myristoylation and S-acylation (PTM) mutant), full-length (protein, UniProt O64790 1-762)
chain: B1 chain with G2A, C3A, C4A
binding [4]: binds

B5: RPM1 CC^1–155 (domain or fragment, UniProt Q39214 1-155)
chain: MASATVDFGIGRILSVLENETLLLSGVHGEIDKMKKELLIMKSFLEDTHKHGGNGSTTTTTQLFQTFVANTRDLAYQIEDILDEFGYHIHGYRSCAKIWRAFHFPRYMWARHSIAQKLGMVNVMIQSISDSMKRYYHSENYQAALLPPIDDGDAK
binding [5]: binds

Reference: publication PMC11467418
